Here are results for three molecules from PMC9640671.

The chains behind the UniProt entries cited, without tags or fusion partners.
UniProt P51150: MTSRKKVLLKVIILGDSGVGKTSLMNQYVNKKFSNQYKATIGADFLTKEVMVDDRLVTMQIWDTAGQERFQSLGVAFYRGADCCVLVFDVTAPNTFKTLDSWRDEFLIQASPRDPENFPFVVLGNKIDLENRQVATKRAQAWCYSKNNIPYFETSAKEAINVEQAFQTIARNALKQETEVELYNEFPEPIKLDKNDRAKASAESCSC
UniProt P47811: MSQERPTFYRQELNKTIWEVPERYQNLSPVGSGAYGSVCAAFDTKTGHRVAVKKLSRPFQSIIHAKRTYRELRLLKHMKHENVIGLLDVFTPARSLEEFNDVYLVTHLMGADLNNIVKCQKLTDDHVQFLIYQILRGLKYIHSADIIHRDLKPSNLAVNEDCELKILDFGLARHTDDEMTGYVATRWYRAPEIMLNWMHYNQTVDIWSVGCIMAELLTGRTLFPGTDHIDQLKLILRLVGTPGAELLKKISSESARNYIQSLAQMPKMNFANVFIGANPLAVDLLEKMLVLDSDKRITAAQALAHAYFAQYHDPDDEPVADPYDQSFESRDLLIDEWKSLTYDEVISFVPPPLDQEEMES

In one assay the target is Flag-tagged Rab7a (UniProt P51150). As to the kind of experiment: co-IP; HEK 293T cells co-transfected with Flag-tagged Rab7a and HA-tagged MAPK14 constructs; immunoprecipitation from lysate, immunoblot.
In assay [1] the target is MAPK14 (endogenous, RAW264.7) (mouse (endogenous in RAW264.7)) (UniProt P47811). As to the kind of experiment: co-IP; endogenous proteins; MAPK14 immunoprecipitates of lysates of RAW264.7 stimulated with LPS (1 μg/mL) for 30 min, with or without inhibitor pretreatment for 30 min (SB203580 by the text, PD168393 by the legend); immunoblot.
For assay [2], the target named is EGFR (epidermal growth factor receptor), endogenous in BMDM (mouse (endogenous in BMDM)) (UniProt Q01279). As to the kind of experiment: co-IP; endogenous proteins; BMDM treated with LPS (1 µg/mL) for 1 h with or without PD168393 (10 μM) pretreatment for 30 min; IP lysis buffer, anti-EGFR antibody, Protein A/G magnetic beads, 4 °C; immunoblot.

These are yes or no findings as the source states them, for the method shown. Binding seen in cells or lysates may run through a third protein. Some entries that bind do so weakly or less than the wild type.

Regarding “HA-tagged MAPK14 (from UniProt P47811 1-360) (enzyme)”, the binding result with Flag-tagged Rab7a is given as “binds”.

Consider “Rab7a (endogenous, RAW264.7) (from UniProt P51150 1-207)”, for which the binding entry in assay [1] was “binds”.

B1: Rab5a (endogenous, BMDM) (protein, UniProt Q9CQD1 1-215)
chain: MANRGATRPNGPNTGNKICQFKLVLLGESAVGKSSLVLRFVKGQFHEFQESTIGAAFLTQTVCLDDTTVKFEIWDTAGQERYHSLAPMYYRGAQAAIVVYDITNEESFARAKNWVKELQRQASPNIVIALSGNKADLANKRAVDFQEAQSYADDNSLLFMETSAKTSMNVNEIFMAIAKKLPKNEPQNPGANSARGRGVDLTEPAQPARSQCCSN
As for B1, the binding entry in assay [2] is “binds”.
